The list is a part of this screen's results and no random one: it is rich in T/C values a quarter to a half above the control, in often repeated tests (any T/C) and in doses without a T/C. Further doses and runs are listed elsewhere. T/C: endpoint of the treated group in % of that of the vehicle group. Some doses have a count of surviving animals in place of a T/C: the source holds a T/C of zero for them, seemingly a mark for toxic or unscored doses. Some doses without a T/C left all or most animals alive at the check, yet need not have been tolerated: the source hardly ever lists a survival T/C far under the control, and the zero likely stands for such cases as well. Counts of survivors are from the toxicity check (mostly the fifth day) where no day follows; animals may have died later. Schedule codes are those of the source, taken here to give the interval after Q, in days (D) or hours (H), and the number of doses after X. Where survival is the endpoint, this PubChem deposit counts one and a half times the control or more as active, and values a quarter to a half above the control carry no call in these data; other NCI protocols may use other cut-offs.
Test system: L1210 leukemia ip in BDF1 mice, survival T/C
Test: NCI In Vivo Anticancer Drug Screen. Data for tumor model L1210 Leukemia (intraperitoneal) in B6D2F1 (BDF1) mice
Details: T/C endpoint: mean survival time, higher T/C = longer survival
[1] = dose: 100.0 mg/kg/injection, schedule: Q01DX009 (ip), vehicle: saline
[2] = dose: 400.0 mg/kg/injection, schedule: Q01DX009 (ip), vehicle: saline
[3] = dose: 200.0 mg/kg/injection, schedule: Q01DX001 (ip), vehicle: saline
[4] = dose: 400.0 mg/kg/injection, schedule: Q01DX001 (ip), vehicle: saline
[5] = dose: 200.0 mg/kg/injection, schedule: Q04DX002 (ip), vehicle: Klucel (hydroxypropylcellulose) (HPC)
[6] = dose: 50.0 mg/kg/injection, schedule: Q01DX009 (ip), vehicle: Klucel (hydroxypropylcellulose) (HPC)
[7] = dose: 200.0 mg/kg/injection, schedule: Q04DX003 (ip), vehicle: Klucel (hydroxypropylcellulose) (HPC)
[8] = dose: 400.0 mg/kg/injection, schedule: Q04DX003 (ip), vehicle: Klucel (hydroxypropylcellulose) (HPC)
[9] = dose: 200.0 mg/kg/injection, schedule: Q04DX002 (ip), vehicle: saline with Tween-80
[10] = dose: 400.0 mg/kg/injection, schedule: Q04DX002 (ip), vehicle: saline with Tween-80
[11] = dose: 200.0 mg/kg/injection, schedule: Q04DX003 (ip), vehicle: saline
[12] = dose: 400.0 mg/kg/injection, schedule: Q01DX009 (ip), vehicle: Klucel (hydroxypropylcellulose) (HPC)
[13] = dose: 100.0 mg/kg/injection, schedule: Q04DX003 (ip), vehicle: Klucel (hydroxypropylcellulose) (HPC)
[14] = dose: 300.0 mg/kg/injection, schedule: Q01DX001 (ip), vehicle: saline
[15] = dose: 400.0 mg/kg/injection, schedule: Q04DX003 (ip), vehicle: saline
[16] = dose: 50.0 mg/kg/injection, schedule: Q04DX003 (ip), vehicle: saline
[17] = dose: 100.0 mg/kg/injection, schedule: Q04DX003 (ip), vehicle: saline

SMILES: CCOC(=O)NCC(CCN1CCCC1)(CCN1CCCC1)c1cccc2ccccc12
- survivor count (dose: 100.0 mg/kg/injection, schedule: Q04DX002 (ip), vehicle: saline): 1 of 3

SMILES: Nc1nc(N)c(-c2cccc(Cl)c2)c(CBr)n1
- survivor count [1]: 3 of 6
- survivor count (dose: 200.0 mg/kg/injection, schedule: Q01DX009 (ip), vehicle: saline): 1 of 6
- survivor count [2]: 0 of 6

SMILES: CC(=O)N(C)c1ccc(S(=O)(=O)Cl)cc1
- survivor count (dose: 400.0 mg/kg/injection, schedule: Q01DX009 (ip), vehicle: saline with Tween-80): 4 of 6

SMILES: Cc1nnc(Cl)c2ccccc12
- survivor count [3]: 0 of 6
- survivor count [4]: 2 of 6

SMILES: NC(CSS(=O)(=O)O)=NCCc1c[nH]c(=S)[nH]1
- survivor count (dose: 50.0 mg/kg/injection, schedule: Q04DX002 (ip), vehicle: Klucel (hydroxypropylcellulose) (HPC)): 0 of 3
- survivor count (dose: 100.0 mg/kg/injection, schedule: Q04DX002 (ip), vehicle: Klucel (hydroxypropylcellulose) (HPC)): 0 of 3
- survivor count [5]: 0 of 3
- survivor count (dose: 400.0 mg/kg/injection, schedule: Q04DX002 (ip), vehicle: Klucel (hydroxypropylcellulose) (HPC)): 0 of 3

SMILES: CCCCCCCCCCC/C=N\[N+](C)(C)C
- survivor count [6]: 0 of 6
- survivor count (dose: 75.0 mg/kg/injection, schedule: Q01DX009 (ip), vehicle: Klucel (hydroxypropylcellulose) (HPC)): 0 of 6
- survivor count (dose: 150.0 mg/kg/injection, schedule: Q01DX009 (ip), vehicle: Klucel (hydroxypropylcellulose) (HPC)): 0 of 6
- survivor count (dose: 300.0 mg/kg/injection, schedule: Q01DX009 (ip), vehicle: Klucel (hydroxypropylcellulose) (HPC)): 0 of 6

SMILES: NC(=O)N1CCN(CCCN2c3ccccc3Sc3cc(Cl)ccc32)CC1
- survivor count [6]: 0 of 6
- survivor count (dose: 100.0 mg/kg/injection, schedule: Q01DX009 (ip), vehicle: Klucel (hydroxypropylcellulose) (HPC)): 0 of 6
- survivor count [7]: 1 of 4
- survivor count [8]: 0 of 4

SMILES: N=C(N)S/C=C/C(=O)O
- survivor count [9]: 0 of 3
- survivor count [10]: 0 of 3

SMILES: S=P(Oc1ccccc1)(N1CC1)N1CC1
- survivor count [11]: 6 of 6
- survivor count [4]: 6 of 6

SMILES: Cn1cnc2c1c(=O)[nH]c(=O)n2C
- survivor count [2]: 1 of 6

SMILES: N=C(N)SCc1ccc(CSC(=N)N)cc1
- survivor count (dose: 50.0 mg/kg/injection, schedule: Q04DX002 (ip), vehicle: saline with Tween-80): 0 of 3
- survivor count [1]: 0 of 6
- survivor count (dose: 100.0 mg/kg/injection, schedule: Q04DX002 (ip), vehicle: saline with Tween-80): 0 of 3
- survivor count [9]: 0 of 3
- survivor count [10]: 0 of 3

SMILES: CC(C)(C)NC=O
- survivor count (dose: 150.0 mg/kg/injection, schedule: Q01DX009 (ip), vehicle: saline): 1 of 6
- survivor count (dose: 300.0 mg/kg/injection, schedule: Q04DX003 (ip), vehicle: saline): 2 of 6

SMILES: Nn1c2ccccc2c2ccccc21
- survivor count [12]: 1 of 6

SMILES: NNc1c2ccccc2nc2ccccc12
- survivor count (dose: 5.0 mg/kg/injection, schedule: Q04DX003 (ip), vehicle: Klucel (hydroxypropylcellulose) (HPC)): 0 of 6
- survivor count (dose: 10.0 mg/kg/injection, schedule: Q04DX003 (ip), vehicle: Klucel (hydroxypropylcellulose) (HPC)): 0 of 6
- survivor count (dose: 20.0 mg/kg/injection, schedule: Q04DX003 (ip), vehicle: Klucel (hydroxypropylcellulose) (HPC)): 0 of 6
- survivor count (dose: 50.0 mg/kg/injection, schedule: Q04DX003 (ip), vehicle: Klucel (hydroxypropylcellulose) (HPC)): 0 of 6
- survivor count [13]: 0 of 6
- survivor count [7]: 0 of 6
- survivor count [8]: 0 of 6

SMILES: Nc1cc(N2CCCC2)nc(-c2ccccc2)n1
- survivor count (dose: 200.0 mg/kg/injection, schedule: Q01DX009 (ip), vehicle: saline with Tween-80): 0 of 3

SMILES: Cc1cc(S(=O)(=O)F)ccc1NC(=O)NCc1ccc([N+](=O)[O-])cc1
- survivor count [12]: 2 of 6

SMILES: CC1(C)N=C(N)N=C(N)N1c1cccc(OCCOc2cccc([N+](=O)[O-])c2)c1
- survivor count (dose: 100.0 mg/kg/injection, schedule: Q01DX001 (ip), vehicle: saline): 2 of 6
- survivor count [3]: 0 of 6
- survivor count [4]: 0 of 6

SMILES: Nc1nc2[nH]cnc(=S)c2[nH]1
- survivor count (dose: 150.0 mg/kg/injection, schedule: Q01DX001 (ip), vehicle: saline): 0 of 6
- survivor count [14]: 2 of 6

SMILES: CNCCN1CCCC1
- survivor count [15]: 2 of 6

SMILES: CC(C)OC(=O)Nc1ccc(C(F)(F)F)cc1
- survivor count [5]: 3 of 3

SMILES: CC1=CC(=O)C(CO)=CC1=O
- survivor count (dose: 12.0 mg/kg/injection, schedule: Q01DX009 (ip), vehicle: other): 1 of 3
- survivor count (dose: 12.0 mg/kg/injection, schedule: Q04DX002 (ip), vehicle: other): 3 of 3
- survivor count (dose: 25.0 mg/kg/injection, schedule: Q04DX002 (ip), vehicle: other): 0 of 3
- survivor count (dose: 50.0 mg/kg/injection, schedule: Q04DX002 (ip), vehicle: other): 0 of 3
- survivor count (dose: 100.0 mg/kg/injection, schedule: Q04DX002 (ip), vehicle: other): 0 of 3
- survivor count (dose: 200.0 mg/kg/injection, schedule: Q04DX002 (ip), vehicle: other): 0 of 3
- survivor count (dose: 400.0 mg/kg/injection, schedule: Q04DX002 (ip), vehicle: other): 0 of 3

SMILES: Cc1c(Cl)c(Cl)cc([N+](=O)[O-])c1Cl
- T/C (dose: 100.0 mg/kg/injection, schedule: Q01DX009 (sc), vehicle: olive oil, sesame oil, peanut oil): 129 % of control

SMILES: C[N+](C)(C)c1ccc(N2C(=O)C3C4c5ccccc5C(C3C2=O)[n+]2ccccc24)cc1 (stereo unspecified)
- survivor count [16]: 0 of 6
- survivor count [17]: 0 of 6
- survivor count [11]: 0 of 6
- survivor count [15]: 1 of 6

SMILES: O=S(=O)(O)c1cccc2nsnc12
- survivor count [12]: 0 of 6

SMILES: CCC(C)(CCC(C)C)c1ccncc1 (stereo unspecified)
- survivor count [4]: 0 of 6

SMILES: CC12CCCC(C(C#N)C(N)=O)(C1)NC(=O)C2C#N (stereo unspecified)
- survivor count [4]: 1 of 4

SMILES: [Cl][Sn]([Cl])([Cl])[Cl]
- survivor count (dose: 25.0 mg/kg/injection, schedule: Q04DX003 (ip), vehicle: saline): 0 of 3
- survivor count [16]: 0 of 3
- survivor count [17]: 0 of 3
- survivor count [11]: 1 of 3
- survivor count [15]: 0 of 3

SMILES: O=[N+]([O-])c1cccc(Cl)c1O
- survivor count (dose: 400.0 mg/kg/injection, schedule: Q01DX001 (ip), vehicle: gum acacia): 0 of 6

SMILES: N=C([Se])c1c(N)ncn1C1OC(CO)C(O)C1O (stereo unspecified)
- survivor count (dose: 100.0 mg/kg/injection, schedule: Q01DX005 (ip), vehicle: saline): 1 of 6
- survivor count (dose: 200.0 mg/kg/injection, schedule: Q01DX005 (ip), vehicle: saline): 0 of 6

SMILES: CCCCCCCCCCCC(=O)Nc1cc(C(C)C)ccc1C
- survivor count [11]: 6 of 6
- survivor count [15]: 3 of 6

SMILES: Cc1ccc(C(=O)C=Nc2ccc(C(=O)O)cc2)cc1
- survivor count [8]: 6 of 6

SMILES: CN(C)CCCn1c(=O)c2ccccc2c2ccccc21
- survivor count [3]: 0 of 4
- survivor count (dose: 200.0 mg/kg/injection, schedule: Q01DX015 (ip), vehicle: saline): 0 of 6
- survivor count [4]: 0 of 4

SMILES: CCC1(c2ccccc2)C(=O)NC(=O)NC1=O
- survivor count [14]: 1 of 6

SMILES: CCOC(=O)c1cnc(SC)nc1Nc1c(Br)cc(Br)cc1Br
- survivor count [13]: 0 of 6
- survivor count [7]: 1 of 6
- survivor count [8]: 0 of 6

— PubChem BioAssay AID248 (DTP/NCI, 2004)
